# The other results are listed elsewhere or left out. The data scatter; read single values as rough.
# Protein sequences, listed by entry. Tags and fused reporters are not part of them. Lines headed by an entry give the natural chain unless they say otherwise; changes in a name come on top. Residues count along the entry.
# UniProt Q53GS7: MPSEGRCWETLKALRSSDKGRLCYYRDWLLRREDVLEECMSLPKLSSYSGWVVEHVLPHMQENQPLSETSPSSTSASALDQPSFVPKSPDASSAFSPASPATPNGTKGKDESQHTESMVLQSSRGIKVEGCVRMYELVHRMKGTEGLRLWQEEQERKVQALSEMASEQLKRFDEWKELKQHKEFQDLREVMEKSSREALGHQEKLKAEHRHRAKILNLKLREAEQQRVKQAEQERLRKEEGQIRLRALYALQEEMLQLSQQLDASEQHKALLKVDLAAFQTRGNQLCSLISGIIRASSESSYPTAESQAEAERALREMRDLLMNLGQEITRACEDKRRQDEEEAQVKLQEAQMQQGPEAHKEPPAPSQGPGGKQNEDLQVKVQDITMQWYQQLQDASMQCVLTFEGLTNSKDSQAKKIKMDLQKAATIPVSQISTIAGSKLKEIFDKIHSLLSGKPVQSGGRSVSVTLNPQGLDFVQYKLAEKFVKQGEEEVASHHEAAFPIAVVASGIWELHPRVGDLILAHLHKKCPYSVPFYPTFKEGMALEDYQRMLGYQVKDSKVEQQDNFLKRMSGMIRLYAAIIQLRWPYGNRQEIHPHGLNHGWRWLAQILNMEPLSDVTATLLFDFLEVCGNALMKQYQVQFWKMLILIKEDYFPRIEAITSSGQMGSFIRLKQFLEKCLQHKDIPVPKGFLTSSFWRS
# UniProt Q9BQ67, 263-287: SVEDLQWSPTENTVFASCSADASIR
# UniProt Q13322: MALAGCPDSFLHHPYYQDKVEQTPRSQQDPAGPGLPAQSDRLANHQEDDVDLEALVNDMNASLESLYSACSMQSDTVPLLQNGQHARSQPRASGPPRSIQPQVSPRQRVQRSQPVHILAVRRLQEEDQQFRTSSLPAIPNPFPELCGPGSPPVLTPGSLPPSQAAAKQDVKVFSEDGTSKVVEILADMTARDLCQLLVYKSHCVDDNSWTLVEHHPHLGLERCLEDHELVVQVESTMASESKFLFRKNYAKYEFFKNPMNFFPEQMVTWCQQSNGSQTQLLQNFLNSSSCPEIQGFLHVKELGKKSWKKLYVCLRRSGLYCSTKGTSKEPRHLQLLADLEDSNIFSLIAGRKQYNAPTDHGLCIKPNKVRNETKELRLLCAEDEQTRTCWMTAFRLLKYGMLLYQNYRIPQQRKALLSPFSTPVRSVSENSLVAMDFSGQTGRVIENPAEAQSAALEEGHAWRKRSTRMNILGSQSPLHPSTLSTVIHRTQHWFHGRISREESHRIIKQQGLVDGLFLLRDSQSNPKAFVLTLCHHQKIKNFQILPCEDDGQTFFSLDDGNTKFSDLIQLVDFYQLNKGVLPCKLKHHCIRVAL
# UniProt Q08379: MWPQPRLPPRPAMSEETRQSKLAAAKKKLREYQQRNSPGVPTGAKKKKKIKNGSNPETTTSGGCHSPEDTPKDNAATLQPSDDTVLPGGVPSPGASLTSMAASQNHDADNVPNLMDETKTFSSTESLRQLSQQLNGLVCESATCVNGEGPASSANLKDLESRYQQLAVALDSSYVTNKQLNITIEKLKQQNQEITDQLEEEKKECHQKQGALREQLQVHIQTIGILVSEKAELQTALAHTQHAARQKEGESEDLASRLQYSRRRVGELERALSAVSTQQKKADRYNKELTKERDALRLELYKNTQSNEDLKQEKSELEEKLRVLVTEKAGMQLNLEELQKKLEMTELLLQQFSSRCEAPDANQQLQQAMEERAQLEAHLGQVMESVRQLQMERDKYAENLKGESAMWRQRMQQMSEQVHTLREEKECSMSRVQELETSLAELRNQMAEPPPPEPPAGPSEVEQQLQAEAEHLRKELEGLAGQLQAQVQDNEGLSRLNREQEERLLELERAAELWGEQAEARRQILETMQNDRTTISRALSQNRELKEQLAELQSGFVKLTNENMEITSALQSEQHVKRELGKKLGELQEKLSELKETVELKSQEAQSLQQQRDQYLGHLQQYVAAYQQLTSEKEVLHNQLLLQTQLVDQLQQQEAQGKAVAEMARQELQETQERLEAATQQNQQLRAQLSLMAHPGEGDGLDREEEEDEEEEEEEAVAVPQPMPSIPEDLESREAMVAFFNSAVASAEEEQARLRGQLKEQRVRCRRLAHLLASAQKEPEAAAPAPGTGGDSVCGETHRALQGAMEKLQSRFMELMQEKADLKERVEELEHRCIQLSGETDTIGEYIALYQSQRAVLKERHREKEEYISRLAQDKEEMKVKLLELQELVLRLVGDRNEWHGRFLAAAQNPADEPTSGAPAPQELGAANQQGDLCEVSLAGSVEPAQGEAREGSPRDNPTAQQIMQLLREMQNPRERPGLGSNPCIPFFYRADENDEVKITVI
# UniProt Q9NVN8: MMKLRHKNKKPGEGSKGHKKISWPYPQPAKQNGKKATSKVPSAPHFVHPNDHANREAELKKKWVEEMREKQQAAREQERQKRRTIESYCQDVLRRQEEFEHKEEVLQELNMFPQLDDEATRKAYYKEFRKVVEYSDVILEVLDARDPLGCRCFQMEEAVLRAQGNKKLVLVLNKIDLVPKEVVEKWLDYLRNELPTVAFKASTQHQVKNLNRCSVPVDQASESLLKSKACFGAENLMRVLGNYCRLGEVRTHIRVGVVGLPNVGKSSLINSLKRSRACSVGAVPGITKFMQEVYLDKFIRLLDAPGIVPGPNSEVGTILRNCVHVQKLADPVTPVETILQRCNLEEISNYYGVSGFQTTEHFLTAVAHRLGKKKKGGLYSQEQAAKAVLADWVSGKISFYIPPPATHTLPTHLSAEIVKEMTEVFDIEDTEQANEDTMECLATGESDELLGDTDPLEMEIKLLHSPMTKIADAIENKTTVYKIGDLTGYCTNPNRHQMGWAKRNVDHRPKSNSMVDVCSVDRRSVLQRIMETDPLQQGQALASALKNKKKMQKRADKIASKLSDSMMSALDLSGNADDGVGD
# UniProt Q4ZG55: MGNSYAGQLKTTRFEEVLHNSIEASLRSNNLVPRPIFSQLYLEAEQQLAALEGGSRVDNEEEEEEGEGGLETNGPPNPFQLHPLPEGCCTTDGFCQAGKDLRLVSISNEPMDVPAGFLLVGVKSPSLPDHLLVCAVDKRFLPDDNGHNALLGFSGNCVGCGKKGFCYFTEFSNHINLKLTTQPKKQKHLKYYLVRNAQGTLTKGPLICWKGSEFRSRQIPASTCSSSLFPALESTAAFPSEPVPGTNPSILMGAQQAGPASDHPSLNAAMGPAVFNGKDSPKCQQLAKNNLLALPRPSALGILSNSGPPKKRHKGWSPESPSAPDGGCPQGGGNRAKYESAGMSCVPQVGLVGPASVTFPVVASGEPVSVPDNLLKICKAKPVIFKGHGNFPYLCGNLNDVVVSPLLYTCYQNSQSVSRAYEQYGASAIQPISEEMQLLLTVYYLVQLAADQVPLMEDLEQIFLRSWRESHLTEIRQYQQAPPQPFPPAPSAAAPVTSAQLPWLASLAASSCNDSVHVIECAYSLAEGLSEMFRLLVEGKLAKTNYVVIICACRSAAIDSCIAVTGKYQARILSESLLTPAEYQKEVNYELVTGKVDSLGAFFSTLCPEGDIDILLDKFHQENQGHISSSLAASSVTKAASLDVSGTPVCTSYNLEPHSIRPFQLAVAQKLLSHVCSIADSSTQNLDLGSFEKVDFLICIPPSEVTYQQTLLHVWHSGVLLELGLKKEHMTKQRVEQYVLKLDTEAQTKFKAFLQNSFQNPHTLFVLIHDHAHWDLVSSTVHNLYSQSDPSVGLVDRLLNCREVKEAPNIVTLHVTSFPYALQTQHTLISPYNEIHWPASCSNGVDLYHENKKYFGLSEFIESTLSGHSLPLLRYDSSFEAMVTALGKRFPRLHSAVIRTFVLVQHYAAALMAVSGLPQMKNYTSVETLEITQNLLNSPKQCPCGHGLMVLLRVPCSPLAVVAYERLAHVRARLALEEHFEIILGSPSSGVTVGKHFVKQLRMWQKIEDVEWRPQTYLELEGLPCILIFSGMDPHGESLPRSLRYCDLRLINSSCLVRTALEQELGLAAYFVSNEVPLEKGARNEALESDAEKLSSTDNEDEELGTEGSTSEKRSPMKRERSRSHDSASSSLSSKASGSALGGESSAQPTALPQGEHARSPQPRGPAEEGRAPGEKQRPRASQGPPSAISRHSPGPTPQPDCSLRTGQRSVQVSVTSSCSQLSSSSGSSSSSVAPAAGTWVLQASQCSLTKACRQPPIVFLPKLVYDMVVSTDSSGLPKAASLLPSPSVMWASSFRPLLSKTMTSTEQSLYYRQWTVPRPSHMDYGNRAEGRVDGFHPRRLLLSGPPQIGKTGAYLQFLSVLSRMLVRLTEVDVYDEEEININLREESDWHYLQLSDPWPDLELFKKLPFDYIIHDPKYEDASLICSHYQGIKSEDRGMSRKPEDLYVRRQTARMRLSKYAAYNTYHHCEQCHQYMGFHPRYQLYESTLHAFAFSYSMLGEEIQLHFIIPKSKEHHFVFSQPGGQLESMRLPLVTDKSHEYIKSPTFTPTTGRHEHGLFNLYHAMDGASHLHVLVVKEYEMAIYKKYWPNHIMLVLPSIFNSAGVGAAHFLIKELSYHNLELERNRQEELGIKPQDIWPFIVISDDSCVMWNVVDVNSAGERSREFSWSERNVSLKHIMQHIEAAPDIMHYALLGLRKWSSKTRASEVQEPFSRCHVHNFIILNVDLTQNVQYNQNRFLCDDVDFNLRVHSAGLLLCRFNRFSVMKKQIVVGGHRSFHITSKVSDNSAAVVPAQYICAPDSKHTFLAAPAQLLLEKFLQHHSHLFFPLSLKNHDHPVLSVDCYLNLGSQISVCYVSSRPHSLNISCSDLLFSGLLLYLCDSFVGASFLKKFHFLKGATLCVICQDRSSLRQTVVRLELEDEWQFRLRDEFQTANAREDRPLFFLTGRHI
# How the values were obtained:
# [1] = compound: ClCC(=O)N[C@@H]1CCCc2ccccc12; assay: log2 mean competition ratio of IA-DTB cysteine labelling (DMSO/compound) (log2 ratio); higher = stronger cysteine engagement by compound; conditions: treatment time: 4 h, cell line lysate: HEK293T
# Experimental: (§1)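 IA-DTB competitive cysteine chemoproteomics in HEK293T RIPA lysate. Lysates were treated with compound 29 or 30 at 50 or 200 µM for 4 h, then IA-DTB (500 µM, 1 h), trypsin-digested, NeutrAvidin-enriched and analysed by diaPASEF. Competition ratio = intensity DMSO / intensity compound (n=4 treated, n=64 DMSO); binding: mean log2 CR ≥ 1 and p ≤ 0.05 plus QC filters. Target is the cysteine site.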
# [2] = compound: ClCC(=O)N[C@H]1CCCc2ccccc12; assay: as above; conditions: treatment time: 4 h, cell line lysate: HEK293T
# Experimental: as §1
Target,log2 mean competition ratio ([1]; 50 µM),log2 mean competition ratio ([1]; 200 µM),log2 mean competition ratio ([2]; 50 µM),log2 mean competition ratio ([2]; 200 µM)
GLE1 C39 (UniProt Q53GS7),-0.152,-0.187,-0.222,-0.329
GRWD1 C280 (UniProt Q9BQ67),-0.328,0.117,0.137,0.0392
GRB10 C380 (UniProt Q13322),-0.0399,0.202,-0.118,0.261
GOLGA2 C427 (UniProt Q08379),-0.148,-0.374,-0.413,-0.0447
GNL3L C89 (UniProt Q9NVN8),0.0494,0.103,-0.18,0.026
GRB10 C321 (UniProt Q13322),-0.163,0.00858,0.109,-0.0205
GREB1 C1202 (UniProt Q4ZG55),0.329,0.0429,0.175,-0.141

# From the supplement of paper PMC11732987, “Enantioselective OTUD7B fragment discovery through chemoproteomics screening and high-throughput optimisation” (Communications Chemistry, 2025)
